Measurements from PMC7562701.
These are yes or no findings as the source states them, for the method shown. Binding seen in cells or lysates may run through a third protein. Some results given as binding are weak or reduced against the parent protein; the word gives no strength. Where a sequence is shown, tags or fusion partners need not be part of it.

T1: flag-RhoEα (human) (UniProt P61587)
T1 sequence: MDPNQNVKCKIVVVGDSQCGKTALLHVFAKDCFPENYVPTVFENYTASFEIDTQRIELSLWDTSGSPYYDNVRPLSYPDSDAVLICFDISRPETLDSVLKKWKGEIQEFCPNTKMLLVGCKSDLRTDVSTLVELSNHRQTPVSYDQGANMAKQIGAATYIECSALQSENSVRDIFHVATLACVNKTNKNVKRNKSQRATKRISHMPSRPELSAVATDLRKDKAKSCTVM

T2: flag-RhoE (human) (UniProt P61587)
T2 sequence: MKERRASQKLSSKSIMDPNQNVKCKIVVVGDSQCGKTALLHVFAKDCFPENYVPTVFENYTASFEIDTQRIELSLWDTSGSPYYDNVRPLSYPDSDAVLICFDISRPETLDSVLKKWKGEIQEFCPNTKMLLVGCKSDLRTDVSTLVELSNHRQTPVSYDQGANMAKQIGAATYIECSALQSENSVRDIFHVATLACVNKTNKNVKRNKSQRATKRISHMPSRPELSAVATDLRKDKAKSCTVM


Columns and labels:
[1] = biological target: T1, flag-RhoEα (human); experiment: co-IP; HEK293 cells transfected with indicated plasmids; lysates 24 h after transfection; precipitated with anti-flag antibody
[2] = biological target: T2, flag-RhoE (human); experiment: as above

binding [1]	binding [2]	Binder
binds	binds	synectin-binding RhoA exchange factor (Syx) (protein, UniProt O94827 1-1006) MHYDGHVRFDLPPQGSVLARNVSTRSCPPRTSPAVDLEEEEEESSVDGKGDRKSTGLKLSKKKARRRHTDDPSKECFTLKFDLNVDIETEIVPAMKKKSLGEVLLPVFERKGIALGKVDIYLDQSNTPLSLTFEAYRFGGHYLRVKAPAKPGDEGKVEQGMKDSKSLSLPILRPAGTGPPALERVDAQSRRESLDILAPGRRRKNMSEFLGEASIPGQEPPTPSSCSLPSGSSGSTNTGDSWKNRAASRFSGFFSSGPSTSAFGREVDKMEQLEGKLHTYSLFGLPRLPRGLRFDHDSWEEEYDEDEDEDNACLRLEDSWRELIDGHEKLTRRQCHQQEAVWELLHTEASYIRKLRVIINLFLCCLLNLQESGLLCEVEAERLFSNIPEIAQLHRRLWASVMAPVLEKARRTRALLQPGDFLKGFKMFGSLFKPYIRYCMEEEGCMEYMRGLLRDNDLFRAYITWAEKHPQCQRLKLSDMLAKPHQRLTKYPLLLKSVLRKTEEPRAKEAVVAMIGSVERFIHHVNACMRQRQERQRLAAVVSRIDAYEVVESSSDEVDKLLKEFLHLDLTAPIPGASPEETRQLLLEGSLRMKEGKDSKMDVYCFLFTDLLLVTKAVKKAERTRVIRPPLLVDKIVCRELRDPGSFLLIYLNEFHSAVGAYTFQASGQALCRGWVDTIYNAQNQLQQLRAQEPPGSQQPLQSLEEEEDEQEEEEEEEEEEEEGEDSGTSAASSPTIMRKSSGSPDSQHCASDGSTETLAMVVVEPGDTLSSPEFDSGPFSSQSDETSLSTTASSATPTSELLPLGPVDGRSCSMDSAYGTLSPTSLQDFVAPGPMAELVPRAPESPRVPSPPPSPRLRRRTPVQLLSCPPHLLKSKSEASLLQLLAGAGTHGTPSAPSRSLSELCLAVPAPGIRTQGSPQEAGPSWDCRGAPSPGSGPGLVGCLAGEPAGSHRKRCGDLPSGASPRVQPEPPPGVSAQHRKLTLAQLYRIRTTLLLNSTLTASEV
binds	binds	p190RhoGAP (protein, UniProt Q9NRY4 1-1499) MMMARKQDVRIPTYNISVVGLSGTEKEKGQCGIGKSCLCNRFVRPSADEFHLDHTSVLSTSDFGGRVVNNDHFLYWGEVSRSLEDCVECKMHIVEQTEFIDDQTFQPHRSTALQPYIKRAAATKLASAEKLMYFCTDQLGLEQDFEQKQMPDGKLLVDGFLLGIDVSRGMNRNFDDQLKFVSNLYNQLAKTKKPIVVVLTKCDEGVERYIRDAHTFALSKKNLQVVETSARSNVNVDLAFSTLVQLIDKSRGKTKIIPYFEALKQQSQQIATAKDKYEWLVSRIVKNHNENWLSVSRKMQASPEYQDYVYLEGTQKAKKLFLQHIHRLKHEHIERRRKLYLAALPLAFEALIPNLDEIDHLSCIKAKKLLETKPEFLKWFVVLEETPWDATSHIDNMENERIPFDLMDTVPAEQLYEAHLEKLRNERKRVEMRRAFKENLETSPFITPGKPWEEARSFIMNEDFYQWLEESVYMDIYGKHQKQIIDKAKEEFQELLLEYSELFYELELDAKPSKEKMGVIQDVLGEEQRFKALQKLQAERDALILKHIHFVYHPTKETCPSCPACVDAKIEHLISSRFIRPSDRNQKNSLSDPNIDRINLVILGKDGLARELANEIRALCTNDDKYVIDGKMYELSLRPIEGNVRLPVNSFQTPTFQPHGCLCLYNSKESLSYVVESIEKSRESTLGRRDNHLVHLPLTLILVNKRGDTSGETLHSLIQQGQQIASKLQCVFLDPASAGIGYGRNINEKQISQVLKGLLDSKRNLNLVSSTASIKDLADVDLRIVMCLMCGDPFSADDILFPVLQSQTCKSSHCGSNNSVLLELPIGLHKKRIELSVLSYHSSFSIRKSRLVHGYIVFYSAKRKASLAMLRAFLCEVQDIIPIQLVALTDGAVDVLDNDLSREQLTEGEEIAQEIDGRFTSIPCSQPQHKLEIFHPFFKDVVEKKNIIEATHMYDNAAEACSTTEEVFNSPRAGSPLCNSNLQDSEEDIEPSYSLFREDTSLPSLSKDHSKLSMELEGNDGLSFIMSNFESKLNNKVPPPVKPKPPVHFEITKGDLSYLDQGHRDGQRKSVSSSPWLPQDGFDPSDYAEPMDAVVKPRNEEENIYSVPHDSTQGKIITIRNINKAQSNGSGNGSDSEMDTSSLERGRKVSIVSKPVLYRTRCTRLGRFASYRTSFSVGSDDELGPIRKKEEDQASQGYKGDNAVIPYETDEDPRRRNILRSLRRNTKKPKPKPRPSITKATWESNYFGVPLTTVVTPEKPIPIFIERCIEYIEATGLSTEGIYRVSGNKSEMESLQRQFDQDHNLDLAEKDFTVNTVAGAMKSFFSELPDPLVPYNMQIDLVEAHKINDREQKLHALKEVLKKFPKENHEVFKYVISHLNKVSHNNKVNLMTSENLSICFWPTLMRPDFSTMDALTATRTYQTIIELFIQQCPFFFYNRPITEPPGARPSSPSAVASTVPFLTSTPVTSQPSPPQSPPPTPQSPMQPLLPSQLQAEHTL
